# Source: PMC10384470
# The chains behind the UniProt entries cited, without tags or fusion partners. Residues count along the entry.
# UniProt P08191, residues 22-181: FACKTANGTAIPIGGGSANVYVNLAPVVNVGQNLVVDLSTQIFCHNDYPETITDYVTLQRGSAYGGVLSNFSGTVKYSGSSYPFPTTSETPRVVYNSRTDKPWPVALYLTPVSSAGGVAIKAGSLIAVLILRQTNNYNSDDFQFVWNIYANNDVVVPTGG
# These are yes or no findings as the source states them, for the method shown. Some binding calls cover weakened binding; strength is not graded here.
# Target: N-terminal domain of E. coli FimH with 3′-FLAG-tag, displayed on the surface of Lactobacillus acidophilus GAD42 (plasmid pD003) (E. coli) (UniProt P08191)
# Test: SDS-PAGE and Western blot; homogenised rLA in reducing sample buffer, 4-20% SDS-PAGE, anti-FLAG-tag Western blot; monomer band at 44 kDa and an additional band
substance,measurement,value
"N-terminal domain of E. coli FimH with 3′-FLAG-tag, displayed on the surface of Lactobacillus acidophilus GAD42 (plasmid pD003) (from UniProt P08191 22-181) (domain or fragment)",binding,binds
